From publication PMC11077084, “Biochemical characterization of the meiosis-essential yet evolutionarily divergent topoisomerase VIB-like protein MTOPVIB from Arabidopsis thaliana” (Nucleic Acids Research, 2024) come the findings set out here.

The comparison behind a weaker result is the experiment's own reference, which may not be listed here. Protein sequences can lack the tags named with them. For part of these data: The exact form of at least one protein or probe is not confirmed.

Data set [1] concerns the target T1, MTOPVIB (Arabidopsis thaliana) (UniProt Q5Q0E6).
T1 sequence (looked up): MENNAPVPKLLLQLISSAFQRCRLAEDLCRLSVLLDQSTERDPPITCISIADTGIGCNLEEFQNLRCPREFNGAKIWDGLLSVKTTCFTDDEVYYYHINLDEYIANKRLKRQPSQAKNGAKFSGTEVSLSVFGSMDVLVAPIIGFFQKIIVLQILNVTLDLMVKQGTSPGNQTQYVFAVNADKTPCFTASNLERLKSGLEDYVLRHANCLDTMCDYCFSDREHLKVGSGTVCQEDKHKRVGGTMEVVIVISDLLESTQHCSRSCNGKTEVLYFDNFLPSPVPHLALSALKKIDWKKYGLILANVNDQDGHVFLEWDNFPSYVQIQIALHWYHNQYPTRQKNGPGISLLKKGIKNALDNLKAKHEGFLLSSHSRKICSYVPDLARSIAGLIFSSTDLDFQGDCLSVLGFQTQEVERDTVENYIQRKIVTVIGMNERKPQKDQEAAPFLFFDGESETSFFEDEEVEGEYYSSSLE
The experiment in a line: EMSA. To be noted: minimal binding at 2 uM MTOPVIB, 80 nM DNA; 23 C, 30 min, 0.8% agarose-TBE at 4 C (6% PAGE for the competition); recombinant protein; residues 1-473; single-stranded DNA.

For data set [2], the target named is T1, MTOPVIB (Arabidopsis thaliana). Briefly: competition with a labelled probe. The note with it: co-incubated with 80 bp dsDNA; 23 C, 30 min, 0.8% agarose-TBE at 4 C (6% PAGE for the competition); recombinant protein; residues 1-473; single-stranded DNA.

On to “TAAATAAGATAAGGATAATACAAAATAAGTAAATGAATAAACAGAGAAAATAAAGTAAAGGATATAAAAAATGAACATAA [80 mer bottom-stranded ssDNA (Oligo 2)]”, for which the binding result in data set [1] is “binds more weakly”.
For the sequence “TTATGTTCATTTTTTATATCCTTTACTTTATTTTCTCTGTTTATTCATTTACTTATTTTGTATTATCCTTATCTTATTTA [80 mer top-stranded ssDNA (Oligo 1)]”, the binding result in data set [1] and in data set [2] was “binds more weakly” in each case.
